Source: US20050043369A1, “Bactericidal antimicrobial methods and compositions for use in treating gram positive infections” (Protez Pharmaceuticals Inc., priority 2000, published 2005)
At least one structure is not confirmed: it was looked up by name or label, or the drawing left a doubt. Some of these results come from one statement about several compounds together.

What was measured:
S. aureus (SA1199) = assay: Time kill studies (CFU counts); format: cell-based, Staphylococcus aureus; conditions: antibiotic 1×MIC + 5 μg/ml INF 401
Method: FIG. 5A, FIG. 5B and FIG. 5C. […]
The initial inoculum number was determined by plating an appropriate dilution on LB agar plates and determining the number of colony forming units (CFUs). At different time points an aliquot was withdrawn from each tube and cell viability was determined by plating an appropriate dilution and counting CFUs after overnight incubation.

[1] = system: S. aureus strain ATTC 29213; assay: Characterization of killing by INF 401 plus chloramphenicol (viability, morphology, protein, DNA, metal dependence); format: cell-based, Staphylococcus aureus; conditions: reversed by exogenous Fe3+

SMILES | time to 3 log10 reduction in cell viability, antibiotic in combination with INF 401 (S. aureus (SA1199)) | effect of iron chelator on killing by INF 401 [1]
CCC[C@@H]1C[C@@H](C(=O)N[C@@H]([C@H]2O[C@H](SC)[C@H](O)[C@@H](O)[C@H]2O)[C@H](C)Cl)N(C)C1 [Clindamycin] | less than 3 h | –
CN(C)[C@@H]1C(O)=C(C(N)=O)C(=O)[C@@]2(O)C(O)=C3C(=O)c4c(O)cccc4[C@@](C)(O)[C@H]3C[C@@H]12 [Tetracycline] | less than 3 h | –
CC(=O)N(O)CCCCCNC(=O)CCC(=O)N(O)CCCCCNC(=O)CCC(=O)N(O)CCCCCN [deferoxamine] | – | completely ablate killing
O=C(N[C@H](CO)[C@H](O)c1ccc([N+](=O)[O-])cc1)C(Cl)Cl [Chloramphenicol] | less than 3 h | –
